Assay results as given in PMC7540616.
Results are given in words; binding and its absence hold for the method and conditions named. Binding seen in cells or lysates may run through a third protein. Binding can be weak; no strength is given. For part of these data: Where a sequence is shown, tags or fusion partners need not be part of it.

By UniProt entry, the sequences of proteins in these tests, tags left out. Where a name states a change or a piece, a line headed by the entry shows the natural chain unless it says otherwise.
UniProt Q6NS03: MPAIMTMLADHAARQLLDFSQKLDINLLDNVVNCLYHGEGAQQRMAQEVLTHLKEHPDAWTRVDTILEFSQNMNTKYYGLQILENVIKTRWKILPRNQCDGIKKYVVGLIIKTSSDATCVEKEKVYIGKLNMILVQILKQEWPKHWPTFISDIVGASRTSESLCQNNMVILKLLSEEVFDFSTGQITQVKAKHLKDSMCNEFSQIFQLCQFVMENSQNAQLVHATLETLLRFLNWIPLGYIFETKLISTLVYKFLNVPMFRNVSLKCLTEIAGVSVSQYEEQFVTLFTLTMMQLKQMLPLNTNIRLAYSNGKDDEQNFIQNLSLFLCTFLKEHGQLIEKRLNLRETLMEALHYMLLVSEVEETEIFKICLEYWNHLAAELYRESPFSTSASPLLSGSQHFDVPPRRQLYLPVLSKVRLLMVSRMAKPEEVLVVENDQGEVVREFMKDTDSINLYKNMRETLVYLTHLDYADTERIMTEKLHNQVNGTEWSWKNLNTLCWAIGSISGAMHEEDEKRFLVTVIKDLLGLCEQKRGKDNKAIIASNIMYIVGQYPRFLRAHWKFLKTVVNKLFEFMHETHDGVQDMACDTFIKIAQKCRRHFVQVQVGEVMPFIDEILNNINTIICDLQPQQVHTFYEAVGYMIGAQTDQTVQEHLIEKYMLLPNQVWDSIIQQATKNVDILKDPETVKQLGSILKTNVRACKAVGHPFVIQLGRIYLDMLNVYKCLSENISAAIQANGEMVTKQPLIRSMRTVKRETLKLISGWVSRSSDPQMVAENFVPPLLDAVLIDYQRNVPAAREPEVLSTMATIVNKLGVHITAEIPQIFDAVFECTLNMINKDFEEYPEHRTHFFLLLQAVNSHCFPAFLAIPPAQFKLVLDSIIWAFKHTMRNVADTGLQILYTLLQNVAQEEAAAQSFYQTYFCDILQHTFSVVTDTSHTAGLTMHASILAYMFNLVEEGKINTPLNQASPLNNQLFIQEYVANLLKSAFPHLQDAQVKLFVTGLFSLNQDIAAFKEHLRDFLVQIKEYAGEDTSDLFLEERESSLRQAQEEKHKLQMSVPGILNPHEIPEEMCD
UniProt Q640Z6: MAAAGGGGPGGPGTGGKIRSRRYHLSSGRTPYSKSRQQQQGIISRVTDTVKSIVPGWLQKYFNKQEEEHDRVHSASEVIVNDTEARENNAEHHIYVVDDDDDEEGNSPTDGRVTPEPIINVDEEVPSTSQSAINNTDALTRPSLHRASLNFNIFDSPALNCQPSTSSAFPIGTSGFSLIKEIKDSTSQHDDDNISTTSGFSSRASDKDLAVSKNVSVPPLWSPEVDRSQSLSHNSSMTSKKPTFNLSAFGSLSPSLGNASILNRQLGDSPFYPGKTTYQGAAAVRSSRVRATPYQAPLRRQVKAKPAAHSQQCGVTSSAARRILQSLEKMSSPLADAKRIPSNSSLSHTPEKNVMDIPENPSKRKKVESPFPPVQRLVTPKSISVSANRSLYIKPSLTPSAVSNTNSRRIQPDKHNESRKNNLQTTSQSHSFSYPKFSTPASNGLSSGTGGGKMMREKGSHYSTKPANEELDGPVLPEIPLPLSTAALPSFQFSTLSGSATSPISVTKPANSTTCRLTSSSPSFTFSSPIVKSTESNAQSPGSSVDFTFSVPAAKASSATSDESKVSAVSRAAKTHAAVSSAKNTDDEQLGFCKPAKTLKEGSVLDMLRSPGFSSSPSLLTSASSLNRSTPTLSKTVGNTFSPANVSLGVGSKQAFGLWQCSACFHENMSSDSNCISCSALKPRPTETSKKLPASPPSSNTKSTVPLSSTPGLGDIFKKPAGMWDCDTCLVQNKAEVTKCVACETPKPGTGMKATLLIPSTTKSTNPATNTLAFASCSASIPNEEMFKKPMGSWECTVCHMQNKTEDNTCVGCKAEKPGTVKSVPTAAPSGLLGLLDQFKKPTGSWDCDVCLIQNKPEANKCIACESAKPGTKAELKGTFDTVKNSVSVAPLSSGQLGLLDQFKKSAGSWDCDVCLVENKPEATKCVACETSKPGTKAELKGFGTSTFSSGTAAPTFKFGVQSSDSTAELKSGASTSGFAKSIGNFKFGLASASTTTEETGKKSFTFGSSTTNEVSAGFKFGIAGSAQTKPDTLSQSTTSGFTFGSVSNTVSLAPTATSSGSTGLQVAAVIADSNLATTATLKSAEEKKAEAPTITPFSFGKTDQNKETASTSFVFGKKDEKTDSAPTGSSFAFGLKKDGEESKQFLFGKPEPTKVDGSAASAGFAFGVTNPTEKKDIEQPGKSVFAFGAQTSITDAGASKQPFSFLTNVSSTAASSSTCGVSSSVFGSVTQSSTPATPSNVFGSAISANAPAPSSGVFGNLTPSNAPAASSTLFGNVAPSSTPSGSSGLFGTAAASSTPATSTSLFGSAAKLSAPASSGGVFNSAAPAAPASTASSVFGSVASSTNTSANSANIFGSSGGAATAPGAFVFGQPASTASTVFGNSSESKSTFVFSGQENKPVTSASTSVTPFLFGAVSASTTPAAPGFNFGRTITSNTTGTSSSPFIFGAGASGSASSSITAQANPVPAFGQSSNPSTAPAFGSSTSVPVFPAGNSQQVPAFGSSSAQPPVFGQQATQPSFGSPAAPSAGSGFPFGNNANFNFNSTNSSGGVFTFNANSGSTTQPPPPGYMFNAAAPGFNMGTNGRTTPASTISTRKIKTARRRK

The substances below were run against T1, GST-hExportin-t (human (from the prefix h in hExportin-t)) (UniProt O43592) (assay: pull-down; GST, GST-xCrm1 or GST-hExportin-t (50 ug) on BSA-blocked glutathione agarose beads; 25 uL interphase Xenopus egg extract in 500 uL PBS, 4 C, 2 h, with or without 100 ug 6xHis-RanQ69L-GTP; washed with PBS+0.2% NP-40 then PBS; immunoblot (mAb414, anti-Nup133, anti-Nup98); only the target purified).
T1 sequence: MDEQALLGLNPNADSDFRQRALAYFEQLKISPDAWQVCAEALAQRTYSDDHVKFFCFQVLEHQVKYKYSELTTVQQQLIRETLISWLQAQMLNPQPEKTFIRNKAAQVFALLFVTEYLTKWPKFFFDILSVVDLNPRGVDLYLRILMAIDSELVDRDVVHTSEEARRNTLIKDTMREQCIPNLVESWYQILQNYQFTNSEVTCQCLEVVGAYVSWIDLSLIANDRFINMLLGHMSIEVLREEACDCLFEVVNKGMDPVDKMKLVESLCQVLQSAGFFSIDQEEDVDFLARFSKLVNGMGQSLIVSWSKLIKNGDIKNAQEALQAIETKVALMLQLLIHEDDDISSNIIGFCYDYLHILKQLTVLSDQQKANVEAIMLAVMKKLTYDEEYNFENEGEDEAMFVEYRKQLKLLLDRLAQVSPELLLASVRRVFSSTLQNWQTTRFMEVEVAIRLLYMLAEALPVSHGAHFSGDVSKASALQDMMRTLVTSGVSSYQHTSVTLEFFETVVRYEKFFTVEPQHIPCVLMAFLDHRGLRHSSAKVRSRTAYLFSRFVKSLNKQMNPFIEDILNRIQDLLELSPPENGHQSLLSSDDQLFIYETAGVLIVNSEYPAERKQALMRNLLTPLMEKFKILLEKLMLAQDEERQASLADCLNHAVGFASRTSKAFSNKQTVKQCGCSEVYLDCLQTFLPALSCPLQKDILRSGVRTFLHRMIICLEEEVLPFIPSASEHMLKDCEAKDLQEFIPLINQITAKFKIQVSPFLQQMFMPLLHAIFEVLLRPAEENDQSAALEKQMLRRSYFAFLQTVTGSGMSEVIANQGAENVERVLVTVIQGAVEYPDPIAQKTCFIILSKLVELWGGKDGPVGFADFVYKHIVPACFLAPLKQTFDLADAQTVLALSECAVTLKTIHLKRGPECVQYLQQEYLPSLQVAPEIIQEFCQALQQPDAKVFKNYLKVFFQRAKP

binding, binds:
Nup98, Nup214, Nup62, Nup358, Nup133

The substances below were run against GST-xCrm1 (Xenopus (from the prefix x in xCrm1)) (UniProt Q6NS03) in the same assay as above.

binding, binds:
Nup153 (from UniProt Q640Z6 1-1605)
